Numbering of substitutions follows the chain as printed. Names may count otherwise. Results are given in words; binding and its absence hold for the method and conditions named. Some binding calls cover weakened binding; strength is not graded here.
B1: IgG1-AXL-183-A-vcDuo3 (antibody, V domains shown)
VH: QVQLQQWGAGLLKPSETLSLTCAVYGGSFSGYYWSWIRQPPGKGLEWIGEINQSGSTNYNPSLKSRVTISVDTSKNQFSLKLSSVTAADTSVYYCASGNWDHFFDYWGQGTLVTVSS
VL: DIQMTQSPSSVSASVGDRVTITCRASQGISSWLAWYQHKPGKAPKLLIYATSSLQSGVTSRFSGSGSGTDFTLTISSLQPEDFATYYCQQAKSFPWTFGQGTKVEIK
modifications: drug-linker on lysine(s); chain and position not given
B2: IgG1-AXL-726-A-vcDuo3 (antibody, V domains shown)
VH: QVQLQQWGAGLLKPSETLSLTCAIDGGSFSGYYWSWIRQPPGKGLEWIGEISHSGRTNYNPSLKSRVTISIDTSKNQFSLKLSSVAAADTAVYYCARFITMIRGAIITHFDYWGQGALVTVSS
VL: DIQMTQSPSSLSASVGDRVTITCRASQGISSWLAWYQQKPEKAPKSLIYAASSLQSGVPSRFSGSGSGTDFTLTISSLQPEDFATYYCQQYHSYPYTFGQGTKLEIK
modifications: drug-linker on lysine(s); chain and position not given
B3: IgG1-AXL-726 (antibody, V domains shown)
VH: B2 VH
VL: B2 VL
B4: IgG1-AXL-148 (antibody, V domains shown)
VH: EVQLLESGGGLVQPGGSLRLSCAASGFTFSSYAMTWVRQAPGKGLEWVSAISISGGSTFYADSVKGRFTISRDNSKNTLYLQMNSLRAEDTAVYYCRGYSGYVYDAFDFWGQGTMVTVSS
VL: B2 VL with S31N, H92N, Y96L, Q100G, L104V
B5: IgG1-AXL-183-N52Q (antibody, V domains shown)
VH: B1 VH with N52Q
VL: B1 VL
B6: IgG1-AXL-511 (antibody, V domains shown)
VH: EVQLLESGGGLVQPGGSLRLSCAASGFTFSSYAMNWVRQAPGKGLEWVSGISGSGGHTYHADSVKGRFTISRDNSKNTLYLQMNSLRAEDTAVYYCAKDRYDILTGYYNLLDYWGQGTLVTVSS
VL: B2 VL with K42E, H92N, Y96L, Q100G, T102A, L104V
B7: IgG1-AXL-726-M101L (antibody, V domains shown)
VH: B2 VH with M101L
VL: B2 VL
B8: IgG1-AXL-733 (antibody, V domains shown)
VH: QVQLVESGGGVVQPGRSLRLSCAASGFSFSTYAMHWVRQAPGKGLEWVAVISYDGDNKYSADSVKGRFTISRDNSKNTLYLQMNSLRAEDTAVYYCARGRKLGIDAFDIWGQGTMVTVSS
VL: AIQLTQSPSSLSASVGDRVTITCRASQGISSALAWYQQKPGKAPKLLIYDASSLESGVPSRFSGSGSGTDFTLTISGLQPEDFATYYCQQFNSYPFTFGPGTKVDIK

Protein sequences, listed by entry. Tags and fused reporters are not part of them. Lines headed by an entry give the natural chain unless they say otherwise; changes in a name come on top. Residues count along the entry.
UniProt P30530: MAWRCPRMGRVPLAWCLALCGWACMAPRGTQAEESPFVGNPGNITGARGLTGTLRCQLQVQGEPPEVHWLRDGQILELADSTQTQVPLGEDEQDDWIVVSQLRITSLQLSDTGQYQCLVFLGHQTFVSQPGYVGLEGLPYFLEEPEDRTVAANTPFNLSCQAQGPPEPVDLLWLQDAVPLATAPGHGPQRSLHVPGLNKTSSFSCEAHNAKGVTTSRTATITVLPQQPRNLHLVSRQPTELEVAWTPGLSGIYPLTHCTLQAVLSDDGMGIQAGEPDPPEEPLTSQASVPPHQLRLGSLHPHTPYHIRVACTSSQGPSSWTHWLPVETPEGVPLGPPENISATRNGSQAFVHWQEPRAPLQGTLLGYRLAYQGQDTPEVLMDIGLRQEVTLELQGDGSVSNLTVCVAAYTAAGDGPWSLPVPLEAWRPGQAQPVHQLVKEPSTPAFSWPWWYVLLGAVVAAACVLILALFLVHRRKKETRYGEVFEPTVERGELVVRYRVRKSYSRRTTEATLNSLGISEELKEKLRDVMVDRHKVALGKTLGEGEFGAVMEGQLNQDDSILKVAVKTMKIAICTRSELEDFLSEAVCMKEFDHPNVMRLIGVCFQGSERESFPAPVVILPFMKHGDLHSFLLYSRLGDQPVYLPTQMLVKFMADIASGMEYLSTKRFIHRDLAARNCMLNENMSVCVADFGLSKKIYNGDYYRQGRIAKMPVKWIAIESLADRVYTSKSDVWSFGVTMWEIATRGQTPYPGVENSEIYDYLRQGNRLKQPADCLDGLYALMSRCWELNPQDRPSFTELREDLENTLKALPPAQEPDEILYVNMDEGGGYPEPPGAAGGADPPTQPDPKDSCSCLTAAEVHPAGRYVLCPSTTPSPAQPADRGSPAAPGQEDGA
UniProt Q12866, residues 21-999: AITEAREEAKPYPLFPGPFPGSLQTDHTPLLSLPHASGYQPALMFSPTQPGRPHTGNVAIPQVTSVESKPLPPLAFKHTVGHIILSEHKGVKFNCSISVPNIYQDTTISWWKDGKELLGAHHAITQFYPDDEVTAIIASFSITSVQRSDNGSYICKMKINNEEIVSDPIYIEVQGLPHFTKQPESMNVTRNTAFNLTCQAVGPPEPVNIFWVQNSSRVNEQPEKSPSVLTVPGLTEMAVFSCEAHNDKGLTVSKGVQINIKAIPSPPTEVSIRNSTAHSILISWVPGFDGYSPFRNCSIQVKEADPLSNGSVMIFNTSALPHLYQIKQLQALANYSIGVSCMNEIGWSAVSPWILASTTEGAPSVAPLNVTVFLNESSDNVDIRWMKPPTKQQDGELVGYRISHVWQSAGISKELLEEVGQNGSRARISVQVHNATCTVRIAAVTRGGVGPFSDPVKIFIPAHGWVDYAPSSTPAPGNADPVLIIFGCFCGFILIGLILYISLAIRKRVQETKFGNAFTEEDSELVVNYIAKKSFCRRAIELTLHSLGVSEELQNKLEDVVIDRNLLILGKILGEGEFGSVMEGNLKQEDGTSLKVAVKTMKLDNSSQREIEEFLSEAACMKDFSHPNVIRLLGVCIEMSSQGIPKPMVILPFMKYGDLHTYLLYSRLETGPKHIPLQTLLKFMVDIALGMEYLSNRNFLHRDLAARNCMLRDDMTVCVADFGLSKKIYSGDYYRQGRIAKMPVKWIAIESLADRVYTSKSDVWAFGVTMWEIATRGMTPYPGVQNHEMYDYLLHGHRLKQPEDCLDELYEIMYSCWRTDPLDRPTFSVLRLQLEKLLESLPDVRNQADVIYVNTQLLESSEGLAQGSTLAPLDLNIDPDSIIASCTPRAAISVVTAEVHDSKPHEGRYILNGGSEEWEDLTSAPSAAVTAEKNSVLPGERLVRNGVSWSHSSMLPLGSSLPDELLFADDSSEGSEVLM
UniProt Q06418, residues 41-890: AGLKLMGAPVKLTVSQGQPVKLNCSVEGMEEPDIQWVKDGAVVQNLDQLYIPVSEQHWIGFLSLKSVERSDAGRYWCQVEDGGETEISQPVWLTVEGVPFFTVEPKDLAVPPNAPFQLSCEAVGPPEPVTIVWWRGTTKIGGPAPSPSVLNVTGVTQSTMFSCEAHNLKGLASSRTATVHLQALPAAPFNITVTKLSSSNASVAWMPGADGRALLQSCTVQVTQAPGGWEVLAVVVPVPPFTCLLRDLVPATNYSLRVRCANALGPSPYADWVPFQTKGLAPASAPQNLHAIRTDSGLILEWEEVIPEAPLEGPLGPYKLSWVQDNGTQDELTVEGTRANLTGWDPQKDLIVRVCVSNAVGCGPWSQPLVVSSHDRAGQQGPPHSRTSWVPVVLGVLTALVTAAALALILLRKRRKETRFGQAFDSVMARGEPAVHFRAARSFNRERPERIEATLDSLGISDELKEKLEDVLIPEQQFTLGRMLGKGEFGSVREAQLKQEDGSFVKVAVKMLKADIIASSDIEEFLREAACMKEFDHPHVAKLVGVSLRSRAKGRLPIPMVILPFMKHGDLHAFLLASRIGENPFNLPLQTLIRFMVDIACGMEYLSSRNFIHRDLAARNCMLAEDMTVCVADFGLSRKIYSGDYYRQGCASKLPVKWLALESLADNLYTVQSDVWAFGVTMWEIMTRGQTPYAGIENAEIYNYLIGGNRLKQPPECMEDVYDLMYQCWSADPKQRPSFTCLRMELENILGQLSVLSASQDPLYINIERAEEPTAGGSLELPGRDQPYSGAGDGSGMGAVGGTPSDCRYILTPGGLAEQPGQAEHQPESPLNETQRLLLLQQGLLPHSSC

Tests used:
[1] = target: human AXL (full length) (human) (UniProt P30530); experiment: flow cytometry, HEK293T cells transiently transfected with human AXL
[2] = target: Homo sapiens AXL-Mus musculus FN2 domain (p33-AXL-mFN2) (human-mouse chimera) (UniProt P30530); experiment: flow cytometry, HEK293F cells expressing the chimera
[3] = target: Homo sapiens AXL-Mus musculus FN2 domain (p33-AXL-mFN2) (human-mouse chimera) (UniProt P30530); experiment: flow cytometry, 1 µg/mL antibody, transfected HEK293F cells
human MER (human) = human MER (human) (UniProt Q12866); experiment: flow cytometry, HEK293F cells transfected with human MER
human TYRO3 (human) = human TYRO3 (human) (UniProt Q06418); experiment: flow cytometry, HEK293F cells transfected with human TYRO3

| Binder | binding [1] | binding [2] | binding [3] | binding (human MER (human)) | binding (human TYRO3 (human)) |
| --- | --- | --- | --- | --- | --- |
| B1 | binds | – | – | – | – |
| B2 | binds | – | – | – | – |
| B3 | – | no binding (tested: 1 µg/mL) | no binding (tested: 1 µg/mL) | – | – |
| B4 | – | – | – | no binding (tested: 10 µg/mL) | no binding (tested: 10 µg/mL) |
| B5 | – | – | – | no binding (tested: 10 µg/mL) | no binding (tested: 10 µg/mL) |
| B6 | – | – | – | no binding (tested: 10 µg/mL) | no binding (tested: 10 µg/mL) |
| B7 | – | – | – | no binding (tested: 10 µg/mL) | no binding (tested: 10 µg/mL) |
| B8 | – | – | – | no binding (tested: 10 µg/mL) | no binding (tested: 10 µg/mL) |

— patent US20180326084A1
